Values from PubChem BioAssay AID1259270 (Sanger Institute, 2017)

Screen: 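Follow-up of kinome hits for synergy with three anchor drugs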 (follow-up of hits)
System: human SNU-C5 colorectal cancer cells
Reagents: single siRNA against human genes
Conditions: anchor drugs added after knock-down: BYL719 1 µM, cetuximab 5 µg/ml or trametinib 10 nM, or DMSO vehicle
Read-out: 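Replicate survival relative to non-targeting pool 2, then averaged; anchor drug added after silencing; synergy score weighs combination against each single treatment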
Reading the numbers: synergy score with BYL719 and synergy score with cetuximab and synergy score with trametinib: higher = stronger synergy (extra killing) with the drug
Call rule: 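a score above 0.10 for BYL719, cetuximab or trametinib gives a synergy call; no score above 0.10 means no synergy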
Meaning of the calls: active = synergy with at least one drug; inactive = no synergy with any drug
Shown is an unselected part of 160 deposited reagents. 76 of them (48%) were called active. 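Four separate siRNAs per gene; calls are per siRNA in one cell line, looser than gene-level validation across several lines.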 Entries without a mark were called inactive. The numbers tell different reagents against one gene apart. Further read-outs or replicates are left out here. Not stated in the record: the amount of reagent, the time to read-out.

What is on record for SF3B1 (GeneID 23451) #1?
synergy score with BYL719: 0.0114; synergy score with cetuximab: -0.0438; synergy score with trametinib: -0.09

For SF3B1 (GeneID 23451) #2, what does the deposit list?
synergy score with BYL719: -0.0898; synergy score with cetuximab: -0.0754; synergy score with trametinib: -0.0691

Which result is listed for SF3B1 (GeneID 23451) #3?
synergy score with BYL719: -0.1; synergy score with cetuximab: -0.0146; synergy score with trametinib: -0.122

With SF3B1 (GeneID 23451) #4, what does the deposit list?
synergy score with BYL719: -0.239; synergy score with cetuximab: -0.0158; synergy score with trametinib: -0.248

What is on record for HUNK (GeneID 30811) #1?
synergy score with BYL719: 0.158 (active); synergy score with cetuximab: 0.13; synergy score with trametinib: 0.349

How did the screen score HUNK (GeneID 30811) #2?
synergy score with BYL719: 0.176 (active); synergy score with cetuximab: 0.234; synergy score with trametinib: 0.272

What did the screen give for HUNK (GeneID 30811) #3?
synergy score with BYL719: -0.0927; synergy score with cetuximab: -0.0242; synergy score with trametinib: -0.0687

For HUNK (GeneID 30811) #4, what was measured?
synergy score with BYL719: -0.028 (active); synergy score with cetuximab: -0.112; synergy score with trametinib: 0.154

Which result is listed for GTF2H1 (GeneID 2965) #1?
synergy score with BYL719: -0.189; synergy score with cetuximab: 0.0531; synergy score with trametinib: -0.149

Which result is listed for GTF2H1 (GeneID 2965) #2?
synergy score with BYL719: -0.162; synergy score with cetuximab: -0.0328; synergy score with trametinib: 0.0931

With GTF2H1 (GeneID 2965) #3, what was measured?
synergy score with BYL719: 0.0231 (active); synergy score with cetuximab: 0.147; synergy score with trametinib: -0.16

How did the screen score GTF2H1 (GeneID 2965) #4?
synergy score with BYL719: -0.141; synergy score with cetuximab: -0.152; synergy score with trametinib: -0.101

Ordered by “synergy score with BYL719” (low to high): some entries from above.
GTF2H1 (GeneID 2965) #1: synergy score with BYL719 = -0.189; synergy score with cetuximab = 0.0531; synergy score with trametinib = -0.149
HUNK (GeneID 30811) #4: synergy score with BYL719 = -0.028 (active); synergy score with cetuximab = -0.112; synergy score with trametinib = 0.154

The results go on.
What did the screen give for PRAG1 (GeneID 157285) #1?
synergy score with BYL719: -0.0704; synergy score with cetuximab: -0.0665; synergy score with trametinib: -0.11

With PRAG1 (GeneID 157285) #2, what does the deposit list?
synergy score with BYL719: 0.42 (active); synergy score with cetuximab: 0.0946; synergy score with trametinib: 0.0747

How did the screen score PRAG1 (GeneID 157285) #3?
synergy score with BYL719: -0.0391 (active); synergy score with cetuximab: 0.125; synergy score with trametinib: 0.116

With PRAG1 (GeneID 157285) #4, what does the deposit list?
synergy score with BYL719: -0.053; synergy score with cetuximab: -0.0543; synergy score with trametinib: -0.394

What did the screen give for PFKFB3 (GeneID 5209) #1?
synergy score with BYL719: -0.177; synergy score with cetuximab: -0.0474; synergy score with trametinib: -0.184

For PFKFB3 (GeneID 5209) #2, what does the deposit list?
synergy score with BYL719: -0.0911 (active); synergy score with cetuximab: 0.143; synergy score with trametinib: 0.191

With PFKFB3 (GeneID 5209) #3, what does the deposit list?
synergy score with BYL719: -0.346; synergy score with cetuximab: -0.032; synergy score with trametinib: -0.161

For PFKFB3 (GeneID 5209) #4, what was measured?
synergy score with BYL719: -0.0951 (active); synergy score with cetuximab: 0.0574; synergy score with trametinib: 0.121

What did the screen give for CDK6 (GeneID 1021) #1?
synergy score with BYL719: 0.00398 (active); synergy score with cetuximab: 0.0934; synergy score with trametinib: 0.304

With CDK6 (GeneID 1021) #2, what was measured?
synergy score with BYL719: 0.0151; synergy score with cetuximab: -0.0614; synergy score with trametinib: -0.0618

What did the screen give for CDK6 (GeneID 1021) #3?
synergy score with BYL719: -0.0245 (active); synergy score with cetuximab: -0.0501; synergy score with trametinib: 0.26

With CDK6 (GeneID 1021) #4, how do the results read?
synergy score with BYL719: 0.15 (active); synergy score with cetuximab: 0.0753; synergy score with trametinib: -0.0284

How did the screen score NLK (GeneID 51701) #1?
synergy score with BYL719: -0.179 (active); synergy score with cetuximab: -0.0501; synergy score with trametinib: 0.224

With NLK (GeneID 51701) #2, how do the results read?
synergy score with BYL719: -0.0215; synergy score with cetuximab: -0.0626; synergy score with trametinib: 0.0776

For NLK (GeneID 51701) #3, what was measured?
synergy score with BYL719: -0.0722; synergy score with cetuximab: -0.0209; synergy score with trametinib: -0.0856

For NLK (GeneID 51701) #4, how do the results read?
synergy score with BYL719: -0.00672; synergy score with cetuximab: 0.0561; synergy score with trametinib: 0.0454
